Source: PubChem BioAssay AID1471 (National Center for Advancing Translational Sciences (NCATS), 2008)
Where “and” joins values, the source holds several entries; their conditions need not be identical. Equal values may be shown once. Hit rate of the full screen: of about 230,000 compounds, about 310 (0.13%) were called active. The inconclusive results got no clear call from the source; some entries with a clear call stand among them for comparison. Calls follow the shape of the dose curve; as a rule, active = well fitted activation curve with a large enough effect; inconclusive = small, poorly fitted or top-dose-only effect; inactive = no such curve, though single readings can be large or run the other way. A potency beside an inconclusive call is a rough fit, not a confirmed value.

test: qHTS Multiplex Assay to Identify Dual Action Probes in a Cell Model of Huntington: Cytoprotection (ATP); conditions: PC12 HTT-Q103 induced, ATP luminescence, 40 h; cytoprotection (ATP increase): at 56.4 µM (top of the series) unless noted; also: nearly all actives have a fitted effect of over 45% in size;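 as to cytoprotection (ATP increase): toxic huntingtin expression switched on by the ecdysone agonist tebufenozide; % of control where 0% means no effect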
In short: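 PC12 cells stably carrying ecdysone-inducible Htt exon 1 (Q103)–GFP were induced with 100 nM tebufenozide (final) alongside library compounds in a dose series. Cytoprotection was scored as retained ATP by ATPlite luminescence.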
Potency is read from the fitted curve at half-maximal effect.

Structure (SMILES)	Potency	cytoprotection (ATP increase)
O=c1cc(-c2ccc(F)cc2F)[nH]c2ccc(F)cc12	inconclusive: 25.1 µM [activator, partial curve, poor fit]	–
O=C1c2ccncc2C(=O)N1C1CCCCC1	inconclusive: 0.631 µM [activator, single point]	–
CCN(CC)CCSC(=O)C(c1ccccc1)c1ccccc1	inconclusive: 35.5 µM [activator, single point]	–
Cc1ncc([N+](=O)[O-])n1CCO	inconclusive: 0.891 µM [activator, single point]	–
CN(C)C(=O)COc1ccc2cc(-c3ccccc3)c(=O)oc2c1	–	inactive: -11.3% [at 10 µM]
O=C(N/N=C\c1ccc(Cl)cc1Cl)c1sccc1-n1cccc1	–	inactive: -19.7%
Cn1c(=O)c(C(=O)CSc2ccccc2)c(N)n(Cc2ccccc2)c1=O	inconclusive: 1.26 µM [activator, single point]	–
O=C(O)/C=C/C(=O)c1ccc2c(c1)NC(=O)CO2	active: 0.199 µM	–
O=C(O)CC(NC(=S)NCc1ccccc1)C(=O)O (configuration not stated)	inconclusive: 14.1 µM [activator, single point]	–
CCC(C)C(=O)OC1C2CC3=C4CC(=O)OC(c5ccoc5)[C@]4(C)CCC3[C@@](C)(C2=O)C(CC(=O)OC)C1(C)C (some centres not stated)	inconclusive: 5.01 µM [activator, partial curve]	–
O=c1oc2ccccc2n1CSC1=NCCS1	inconclusive: 31.6 µM [activator, single point]	–
N#CC(=C=[N-])c1nc2ccccc2nc1-[n+]1ccccc1	inconclusive: 6.31 µM [activator, single point]	–
Cc1ccc2c(c1)-c1c(ssc1=S)C(C)(C)N2C(=O)c1ccco1	–	inactive: 14.4% [at 10 µM]
COc1ccc(OC2C(O)COC2/C=C/C#Cc2ccccc2)cc1 (configuration not stated)	inconclusive: 6.31 µM [activator, partial curve, poor fit]	–
CC12CCC(C/C1=N/NC(=O)COc1ccccc1Cl)C2(C)C (configuration not stated)	inconclusive: 31.6 µM [activator, single point]	–
Cc1cc(C)nc(/N=C(\N)Nc2ccc(-c3ccccc3)cc2)n1	inconclusive: 2.82 µM [activator, partial curve, poor fit]	–
CC(NC(=S)Nc1ccccc1C(F)(F)F)C1CC2CCC1C2 (configuration not stated)	inconclusive: 6.31 µM [activator, single point]	–
CCOC(=O)c1c(C)n(-c2ccc(C)cc2)c2c(C(C(C)=O)C(=O)O)c(Br)c(O)c(O)c12 (configuration not stated)	inconclusive: 31.6 µM [activator, single point]	–
Cc1cc(C)n2c(SCc3ccc(Br)cc3)nnc2n1	–	inactive: -4.56% [at 10 µM]
COc1ccc2[nH]cc(CCNc3ncncc3-c3ccccc3OC)c2c1	inconclusive: 5.01 µM [activator, partial curve]	–
N=c1sccn1CC(=O)Nc1ccc([N+](=O)[O-])cc1Cl	–	inactive: 27.5% [at 10 µM]
O=C(NC[C@@H](O)CO)c1c(I)c(C(=O)NC[C@@H](O)CO)c(I)c(N(CCO)C(=O)CO)c1I	inconclusive: 0.199 µM [activator, full curve]	–
CN(CC1CCCO1)S(=O)(=O)c1ccc(C(=O)N2CCN(c3ccccc3)CC2)cc1 (configuration not stated)	inconclusive: 5.62 µM [activator, single point]	–

Compounds listed so far that have an aryl thioether with sulfur outside any ring, in the order listed:
Structure (SMILES)	Potency	cytoprotection (ATP increase)
Cn1c(=O)c(C(=O)CSc2ccccc2)c(N)n(Cc2ccccc2)c1=O	inconclusive: 1.26 µM [activator, single point]	–
Cc1cc(C)n2c(SCc3ccc(Br)cc3)nnc2n1	–	inactive: -4.56% [at 10 µM]

(continued)

Structure (SMILES)	Potency	cytoprotection (ATP increase)
CC(=O)Nc1ccc(S(=O)(=O)N(CC(=O)O)Cc2ccccc2)cc1	–	inactive: -3.89%
O=C(Nc1ccc(Cl)cc1)Nc1cc([N+](=O)[O-])ccc1F	–	inactive: -4.08% [at 10 µM]
Nc1nc(-c2c[nH]c3ccccc23)cs1	–	inactive: -14%
Cc1cccc(NC(=S)NC(C)(C)CC(C)(C)C)c1	active: 8.91 µM	–
COC(=O)[C@@]1(Cc2ccc(OC)cc2)[C@H]2c3cc(C(=O)N(C)C)n(Cc4cc(F)c(F)c(F)c4)c3C[C@H]2CN1C(=O)c1ccccc1	inconclusive: 5.01 µM [activator, full curve, poor fit]	–
Cn1cc(SCC(=O)N2CCCc3ccccc32)c2ccccc21	–	inactive: 8.4% [at 10 µM]
CN1CCN(C(=O)c2ccc(CN(c3ccccc3)S(=O)(=O)c3ccccc3)cc2)CC1	–	inactive: 16.3% [at 10 µM]
O=C(Oc1ccc(N(C(=O)c2ccncc2)S(=O)(=O)c2ccc(Cl)cc2)cc1)c1ccncc1	inconclusive: 7.08 µM [activator, partial curve, poor fit]	–
O=Nc1c(-c2c(O)[nH]c3ccccc23)[nH]c2ccccc12	active: 1.26 µM and inconclusive: 6.31 µM [activator, single point] and inconclusive: 1.58 µM [activator, partial curve]	–
CCOC(=O)c1c(-c2ccc(OC)cc2)nc2nonc2c1N	active: 0.708 µM	–
C=CCn1c(C)cc(C(=O)Cn2ncc(Cl)c(Cl)c2=O)c1C	inconclusive: 0.891 µM [activator, single point]	–
Cc1cccnc1CCNC(=O)CCc1nnc(CCc2ccccc2)o1	inconclusive: 14.1 µM [activator, single point]	–
O=C(NC(NC(=S)Nc1ccccc1)C(Cl)(Cl)Cl)c1cccc(Cl)c1 (configuration not stated)	–	inactive: -70.5%
CC1(C)Cc2cccc(OCC(=O)N3CCN(c4ccccc4)CC3)c2O1	–	inactive: 9.91% [at 10 µM]
COc1c(Cl)cc(C(=O)Nc2ccc(Cl)cn2)cc1Cl	inconclusive: 5.62 µM [activator, single point]	–
COCCNc1ccc(N2C(=O)C3CCCCC3C2=O)cc1[N+](=O)[O-] (configuration not stated)	–	inactive: -15.7%
Cc1ccnc(NS(=O)(=O)c2ccc(NC(=O)c3ccc(S(=O)(=O)N4CC(C)OC(C)C4)cc3)cc2)n1 (configuration not stated)	inconclusive: 0.501 µM [activator, partial curve]	–
CO[C@@H](CCOCc1ccccc1)C[C@H]1O[C@H](C(=O)OC(C)C)C=C[C@@H]1C	inconclusive: 0.501 µM [activator, full curve]	–
Cc1ccc(SC2CC(=O)N(c3ccc4c(c3)OCCO4)C2=O)cc1 (configuration not stated)	inconclusive: 0.126 µM [activator, full curve, poor fit]	–
COc1ccc(C(=O)CSc2nnc(NC(=O)C3CC(=O)N(c4ccccc4C)C3)s2)cc1 (configuration not stated)	–	inactive: 1.5% [at 10 µM]
CC(=O)OC[C@@H]1O[C@@H](O/N=C2/C[C@@H](O)[C@@H](O)[C@@H]3[C@@H]4C(=O)N(C(C)(C)C)C(=O)[C@H]4CC[C@H]23)[C@H](OC(C)=O)[C@H](OC(C)=O)[C@@H]1OC(C)=O	inconclusive: 0.0008 µM [activator, full curve, poor fit]	–
COC(=O)c1cccc(S(=O)(=O)N2CCC(c3nc4ccccc4o3)CC2)c1	inconclusive: 3.55 µM [activator, partial curve]	–
CC(C)c1ccc(C2CC(=O)N3CN(Cc4ccco4)CSC3=C2C#N)cc1 (configuration not stated)	–	inactive: -7.01%

Structure (SMILES)	Potency	cytoprotection (ATP increase)
CN(C(=O)CSc1nc2ccccc2n1CCc1ccccc1)C1CCS(=O)(=O)C1 (configuration not stated)	–	inactive: -6.48%
C/C(=N\NS(=O)(=O)c1ccc(C)cc1)c1ccc(Br)s1	inconclusive: 1.26 µM [activator, single point]	–
CC1CCN(C(=S)c2ccccc2O)CC1	–	inactive: -3.03%
C[C@H](O)[C@H](O)[C@@H]1CNc2nc(N)[nH]c(=O)c2N1	–	inactive: -20.7% [at 1.9 µM]
CC(C)OC(=O)CC(=O)CSc1nc2c(c(-c3cccs3)c1C#N)CCC2	–	inactive: -4.46% [at 1.9 µM]
CC(C)C(N)C(=O)O (configuration not stated)	–	inactive: -19.2%
O=C1[C@H]2[C@H]3[C@H](O)[C@H](O)C/C(=N/OCc4ccccc4)[C@@H]3CC[C@@H]2C(=O)N1Cc1ccccc1	inconclusive: 0.001 µM [activator, full curve, poor fit]	–
O=C1Nc2ccccc2C(=O)N2CCC[C@@H]12	inconclusive: 7.08 µM [activator, full curve, poor fit]	–
Cc1sc(-n2c(C)ccc2C)c(C#N)c1C	inconclusive: 0.316 µM [activator, partial curve]	–
C[C@H](NC(N)=O)C(=O)OCC(=O)NCc1cccs1	inconclusive: 3.98 µM [activator, partial curve]	–
O=C(c1csc2c1CCCCC2)N1CCN(c2ncccn2)CC1	–	inactive: -2.41%
CC(C)(C)OC(=O)NNC(=S)NC1CCCCC1	inconclusive: 4.47 µM [activator, single point]	–
CC(C)CN1CCCC2(CCN(C(=O)c3cccc(F)c3)CC2)C1	inconclusive: 3.98 µM [activator, single point]	–
Oc1cc(Br)ccc1C=Nc1ccc(N2CCCCC2)cc1	–	inactive: -10.3% [at 10 µM]
N#CCCn1c(=O)c(-c2ccccc2)nc2cnc(N3CCNCC3)nc21	inconclusive: 2.82 µM [activator, single point]	–
O=C(NNC(=O)c1ccccc1Cl)c1cccs1	–	inactive: 7.11% [at 10 µM]
Cc1ccc(NC(=S)NCC2CCN(C(C)c3ccccc3)C2)cc1 (configuration not stated)	inconclusive: 0.794 µM [activator, single point]	–
O=C(CSc1ncn[nH]1)Nc1ccc(Cl)c(Cl)c1	–	inactive: -5.82%
O=C1NN=C(CSc2n[nH]c(=S)s2)CS1	inconclusive: 1 µM [activator, single point]	–
CC(=O)Nc1ccc(NC(=O)c2ccc(Cn3cc(Cl)cn3)cc2)cc1	inconclusive: 1.12 µM [activator, single point]	–
O=c1[nH]c2ccc(S(=O)(=O)N3CCCCC3)cc2o1	–	inactive: -3.95% [at 1.9 µM]
